Consider 1 substance from publication doi:10.1101/2020.03.13.991125.

By UniProt entry, the sequences of proteins in these tests, tags left out.
UniProt Q3SXY8: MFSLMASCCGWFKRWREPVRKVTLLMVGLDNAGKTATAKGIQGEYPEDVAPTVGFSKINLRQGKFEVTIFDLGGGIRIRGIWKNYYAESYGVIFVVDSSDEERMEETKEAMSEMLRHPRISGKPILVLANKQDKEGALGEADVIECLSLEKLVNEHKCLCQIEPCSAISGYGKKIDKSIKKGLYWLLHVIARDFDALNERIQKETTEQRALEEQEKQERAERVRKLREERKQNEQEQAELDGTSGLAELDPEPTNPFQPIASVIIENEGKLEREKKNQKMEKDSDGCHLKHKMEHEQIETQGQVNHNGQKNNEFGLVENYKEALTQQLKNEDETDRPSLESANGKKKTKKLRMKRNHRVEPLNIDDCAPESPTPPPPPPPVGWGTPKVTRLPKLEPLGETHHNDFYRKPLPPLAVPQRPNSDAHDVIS

Results are given in words; binding and its absence hold for the method and conditions named. Binding seen in cells or lysates may run through a third protein. Some binding calls cover weakened binding; strength is not graded here.

The assay has as its target inosine monophosphate dehydrogenase 2 (IMPDH2) (human (endogenous in PDX GBM cells and breast cancer cells)) (UniProt P12268). Put plainly: co-IP.

As to “ADP-ribosylation factor family small GTPase ARL13B (from UniProt Q3SXY8 1-428)”, the binding result is “binds”.
